Assay results from the supplement of paper PMC11006884.
Only a part is listed here, and it is no random draw.

The chains behind the UniProt entries cited, without tags or fusion partners. Where a name states a change or a piece, a line headed by the entry shows the natural chain unless it says otherwise.
UniProt O60343: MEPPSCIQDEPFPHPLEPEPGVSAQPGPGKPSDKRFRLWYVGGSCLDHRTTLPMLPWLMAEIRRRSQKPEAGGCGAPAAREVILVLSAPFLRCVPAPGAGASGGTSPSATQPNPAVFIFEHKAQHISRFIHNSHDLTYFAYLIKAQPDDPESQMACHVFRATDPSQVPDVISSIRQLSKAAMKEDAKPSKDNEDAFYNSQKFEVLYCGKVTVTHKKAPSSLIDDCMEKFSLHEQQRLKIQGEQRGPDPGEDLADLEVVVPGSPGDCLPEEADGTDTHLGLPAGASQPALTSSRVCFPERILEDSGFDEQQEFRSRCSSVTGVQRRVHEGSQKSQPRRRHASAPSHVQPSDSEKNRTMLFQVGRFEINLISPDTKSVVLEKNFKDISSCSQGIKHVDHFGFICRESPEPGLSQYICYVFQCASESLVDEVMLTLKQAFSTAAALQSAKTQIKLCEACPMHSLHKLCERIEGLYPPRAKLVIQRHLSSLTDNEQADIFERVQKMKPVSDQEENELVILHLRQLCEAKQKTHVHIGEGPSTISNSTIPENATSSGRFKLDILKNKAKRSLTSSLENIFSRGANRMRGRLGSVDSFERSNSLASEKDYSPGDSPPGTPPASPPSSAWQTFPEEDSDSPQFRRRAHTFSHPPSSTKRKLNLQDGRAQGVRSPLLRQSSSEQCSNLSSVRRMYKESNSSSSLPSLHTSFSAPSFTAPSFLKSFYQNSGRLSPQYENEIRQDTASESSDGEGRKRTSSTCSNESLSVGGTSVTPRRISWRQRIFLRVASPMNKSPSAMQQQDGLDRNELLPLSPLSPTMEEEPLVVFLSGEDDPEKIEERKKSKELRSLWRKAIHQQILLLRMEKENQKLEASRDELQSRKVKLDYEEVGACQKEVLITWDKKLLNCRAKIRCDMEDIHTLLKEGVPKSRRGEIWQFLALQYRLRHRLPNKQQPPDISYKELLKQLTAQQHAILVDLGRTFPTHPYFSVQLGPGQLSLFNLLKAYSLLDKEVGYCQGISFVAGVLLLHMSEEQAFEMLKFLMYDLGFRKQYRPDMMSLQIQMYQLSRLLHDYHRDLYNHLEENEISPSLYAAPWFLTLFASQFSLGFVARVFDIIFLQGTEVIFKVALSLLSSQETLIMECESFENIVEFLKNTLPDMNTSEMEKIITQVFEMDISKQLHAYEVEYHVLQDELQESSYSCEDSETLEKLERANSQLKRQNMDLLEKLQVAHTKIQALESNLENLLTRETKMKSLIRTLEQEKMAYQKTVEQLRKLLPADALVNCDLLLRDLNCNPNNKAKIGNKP
UniProt O75427: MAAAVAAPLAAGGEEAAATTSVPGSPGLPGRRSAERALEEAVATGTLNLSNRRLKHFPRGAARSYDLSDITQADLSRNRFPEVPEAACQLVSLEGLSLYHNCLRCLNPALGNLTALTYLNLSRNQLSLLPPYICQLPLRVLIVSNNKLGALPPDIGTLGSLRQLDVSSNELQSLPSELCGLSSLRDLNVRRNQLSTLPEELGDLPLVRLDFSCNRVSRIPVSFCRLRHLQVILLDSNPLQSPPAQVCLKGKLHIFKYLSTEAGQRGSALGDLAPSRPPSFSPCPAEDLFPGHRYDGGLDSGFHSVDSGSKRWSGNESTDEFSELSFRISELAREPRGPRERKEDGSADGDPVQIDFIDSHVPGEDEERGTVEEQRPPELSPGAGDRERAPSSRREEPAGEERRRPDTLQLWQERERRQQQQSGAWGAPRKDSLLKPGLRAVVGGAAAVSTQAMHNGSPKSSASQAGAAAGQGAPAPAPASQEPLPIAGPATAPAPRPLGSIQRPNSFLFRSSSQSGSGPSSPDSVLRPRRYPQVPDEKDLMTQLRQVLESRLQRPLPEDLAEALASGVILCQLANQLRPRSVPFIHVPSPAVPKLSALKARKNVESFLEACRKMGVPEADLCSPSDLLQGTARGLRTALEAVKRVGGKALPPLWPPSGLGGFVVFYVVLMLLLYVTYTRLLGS
UniProt O60664: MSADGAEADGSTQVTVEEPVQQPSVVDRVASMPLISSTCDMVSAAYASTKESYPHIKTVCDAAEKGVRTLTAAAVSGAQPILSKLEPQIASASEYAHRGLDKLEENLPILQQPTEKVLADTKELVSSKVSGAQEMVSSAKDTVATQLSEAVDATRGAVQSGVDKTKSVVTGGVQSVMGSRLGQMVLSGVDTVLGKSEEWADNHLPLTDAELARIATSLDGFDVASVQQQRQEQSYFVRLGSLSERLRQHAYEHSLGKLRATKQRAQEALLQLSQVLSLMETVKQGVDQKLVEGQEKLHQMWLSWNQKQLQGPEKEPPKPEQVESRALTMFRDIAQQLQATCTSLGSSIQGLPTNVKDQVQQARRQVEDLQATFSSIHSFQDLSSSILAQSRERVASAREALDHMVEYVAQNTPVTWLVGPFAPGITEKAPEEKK
UniProt O60645: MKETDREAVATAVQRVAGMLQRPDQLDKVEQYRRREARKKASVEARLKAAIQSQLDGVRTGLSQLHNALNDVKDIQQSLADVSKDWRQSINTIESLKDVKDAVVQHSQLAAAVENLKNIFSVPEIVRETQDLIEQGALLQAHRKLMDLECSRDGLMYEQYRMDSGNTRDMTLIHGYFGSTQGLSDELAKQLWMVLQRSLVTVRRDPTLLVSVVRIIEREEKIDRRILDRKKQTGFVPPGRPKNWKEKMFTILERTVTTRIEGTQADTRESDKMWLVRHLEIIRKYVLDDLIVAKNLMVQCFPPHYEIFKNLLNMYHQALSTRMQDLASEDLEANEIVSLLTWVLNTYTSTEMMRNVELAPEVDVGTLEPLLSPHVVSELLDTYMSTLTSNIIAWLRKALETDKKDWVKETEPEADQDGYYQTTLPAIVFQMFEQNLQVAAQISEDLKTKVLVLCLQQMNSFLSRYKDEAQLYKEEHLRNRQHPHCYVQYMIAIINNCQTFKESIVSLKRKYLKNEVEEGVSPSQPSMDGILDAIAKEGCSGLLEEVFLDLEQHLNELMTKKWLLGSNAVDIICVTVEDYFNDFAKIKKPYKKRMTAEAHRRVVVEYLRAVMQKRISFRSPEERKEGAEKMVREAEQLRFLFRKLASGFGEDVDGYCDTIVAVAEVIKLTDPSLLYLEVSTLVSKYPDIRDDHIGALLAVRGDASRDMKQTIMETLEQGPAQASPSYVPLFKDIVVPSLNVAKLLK
UniProt O76071: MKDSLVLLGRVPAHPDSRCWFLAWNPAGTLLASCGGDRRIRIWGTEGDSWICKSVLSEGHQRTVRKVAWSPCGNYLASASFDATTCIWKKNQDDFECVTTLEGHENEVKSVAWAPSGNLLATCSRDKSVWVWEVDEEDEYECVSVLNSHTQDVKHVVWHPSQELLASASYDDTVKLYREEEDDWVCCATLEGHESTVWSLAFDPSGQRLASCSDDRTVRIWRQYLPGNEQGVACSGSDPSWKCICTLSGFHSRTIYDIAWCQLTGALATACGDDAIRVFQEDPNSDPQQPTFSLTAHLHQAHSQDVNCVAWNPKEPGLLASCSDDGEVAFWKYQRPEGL
UniProt O75828: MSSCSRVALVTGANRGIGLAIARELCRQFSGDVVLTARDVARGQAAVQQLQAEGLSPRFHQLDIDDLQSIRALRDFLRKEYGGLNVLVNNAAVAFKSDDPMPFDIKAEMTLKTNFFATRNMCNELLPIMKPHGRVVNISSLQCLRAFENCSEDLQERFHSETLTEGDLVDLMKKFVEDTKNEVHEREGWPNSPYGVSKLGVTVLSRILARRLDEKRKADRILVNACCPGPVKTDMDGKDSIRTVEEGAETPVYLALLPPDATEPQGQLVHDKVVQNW
UniProt O75821, whole entry, looked up: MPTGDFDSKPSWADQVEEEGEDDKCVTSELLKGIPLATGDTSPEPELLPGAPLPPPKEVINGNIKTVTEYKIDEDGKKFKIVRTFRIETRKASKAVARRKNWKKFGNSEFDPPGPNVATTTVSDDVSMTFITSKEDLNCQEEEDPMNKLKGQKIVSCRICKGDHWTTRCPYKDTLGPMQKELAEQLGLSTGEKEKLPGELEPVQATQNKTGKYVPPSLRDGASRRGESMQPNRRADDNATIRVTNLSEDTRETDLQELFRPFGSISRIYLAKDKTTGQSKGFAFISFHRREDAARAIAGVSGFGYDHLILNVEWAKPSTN
UniProt O60256: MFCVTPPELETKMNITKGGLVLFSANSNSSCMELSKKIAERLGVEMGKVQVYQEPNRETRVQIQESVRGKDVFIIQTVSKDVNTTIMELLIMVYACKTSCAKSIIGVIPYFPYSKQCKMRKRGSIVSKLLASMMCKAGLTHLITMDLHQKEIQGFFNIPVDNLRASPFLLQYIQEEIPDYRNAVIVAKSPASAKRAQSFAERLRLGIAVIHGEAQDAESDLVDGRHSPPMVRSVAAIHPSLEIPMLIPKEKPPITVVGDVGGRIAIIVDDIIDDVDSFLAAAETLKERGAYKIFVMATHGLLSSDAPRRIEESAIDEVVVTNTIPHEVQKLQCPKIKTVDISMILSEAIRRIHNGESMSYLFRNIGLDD
UniProt O75528: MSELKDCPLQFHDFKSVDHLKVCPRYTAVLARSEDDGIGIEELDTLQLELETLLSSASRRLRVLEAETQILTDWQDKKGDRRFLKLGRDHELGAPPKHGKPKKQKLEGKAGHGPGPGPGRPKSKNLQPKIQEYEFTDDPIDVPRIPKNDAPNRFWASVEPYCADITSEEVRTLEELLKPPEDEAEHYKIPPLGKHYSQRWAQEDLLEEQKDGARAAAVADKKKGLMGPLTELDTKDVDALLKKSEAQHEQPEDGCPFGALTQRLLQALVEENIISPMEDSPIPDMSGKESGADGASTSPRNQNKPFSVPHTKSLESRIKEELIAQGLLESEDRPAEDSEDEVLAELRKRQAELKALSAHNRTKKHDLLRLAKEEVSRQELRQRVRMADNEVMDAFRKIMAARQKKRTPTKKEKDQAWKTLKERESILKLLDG
UniProt O43583: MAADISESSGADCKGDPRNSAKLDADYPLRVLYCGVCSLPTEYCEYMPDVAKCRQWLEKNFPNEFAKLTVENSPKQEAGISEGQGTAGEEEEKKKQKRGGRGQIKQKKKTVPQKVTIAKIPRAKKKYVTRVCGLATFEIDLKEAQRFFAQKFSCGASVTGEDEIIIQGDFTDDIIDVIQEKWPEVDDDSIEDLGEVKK
UniProt O60942: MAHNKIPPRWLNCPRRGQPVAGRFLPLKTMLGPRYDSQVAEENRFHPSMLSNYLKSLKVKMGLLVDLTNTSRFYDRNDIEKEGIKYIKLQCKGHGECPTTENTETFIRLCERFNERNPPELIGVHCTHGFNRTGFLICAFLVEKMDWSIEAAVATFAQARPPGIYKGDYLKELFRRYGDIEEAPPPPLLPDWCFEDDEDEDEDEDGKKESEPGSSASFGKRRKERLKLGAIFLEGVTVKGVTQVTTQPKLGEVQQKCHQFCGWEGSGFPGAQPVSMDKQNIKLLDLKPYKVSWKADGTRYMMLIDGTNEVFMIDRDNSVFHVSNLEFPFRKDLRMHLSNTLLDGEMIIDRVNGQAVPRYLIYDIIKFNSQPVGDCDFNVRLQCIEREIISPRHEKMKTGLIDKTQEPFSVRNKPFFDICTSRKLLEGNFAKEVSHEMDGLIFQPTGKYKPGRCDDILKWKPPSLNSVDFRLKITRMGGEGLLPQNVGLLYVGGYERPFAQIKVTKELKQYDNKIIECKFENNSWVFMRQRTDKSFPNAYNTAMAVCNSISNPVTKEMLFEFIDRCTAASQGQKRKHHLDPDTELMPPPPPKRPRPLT

Compound: COC(=O)C#Cc1ccccc1 [methyl 3-phenylpropiolate]
Experiment: log2 ratio of iodoacetamide-alkyne labeling of the cysteine site, DMSO over compound (competition); higher = stronger covalent engagement of the cysteine by the compound, active = 1 or more
Settings: 500 µM; treatment time 1 h; system: HEK293T cell lysate
Method in brief: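 For each cysteine, the log2 competition ratio is mean control-channel reporter intensity over mean compound-channel reporter intensity. HEK293T lysate (2 mg/mL) was exposed to vehicle or electrophile (500 µM, 1 h, ambient temperature), labelled with iodoacetamide alkyne (1 h), clicked to sCIP-TMT reagents, digested overnight with trypsin at 37 °C, streptavidin-enriched and analysed by Orbitrap Eclipse LC-MS/MS with FAIMS and FragPipe. Cysteines quantified in only one of three replicates, each with duplicate channels, were excluded.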

Row | Target | log2 ratio of iodoacetamide-alkyne labeling
1 | TBC1D4 C74 (UniProt O60343) | inactive: 0.832
2 | LRCH4 C105 (UniProt O75427) | inactive: 0.43
3 | UniProt O60664_C60 | inactive: 0.479
4 | EXOC3 C465 (UniProt O60645) | inactive: 0.271
5 | KPNA6 C467 (UniProt O60684) | inactive: 0.346
6 | CIAO1 C234 (UniProt O76071) | inactive: 0.325
7 | LRCH4 C134 (UniProt O75427) | inactive: 0.323
8 | TBC1D4 C1277 (UniProt O60343) | inactive: 0.374
9 | CBR3 C143 (UniProt O75828) | inactive: 0.0488
10 | EIF3G C25 (UniProt O75821) | inactive: 0.101
11 | PRPSAP2 C31 (UniProt O60256) | inactive: 0.239
12 | SRGAP2 C893 (UniProt O75044) | inactive: 0.647
13 | UniProt O75528_C7 | active: 1.05
14 | DENR C13 (UniProt O43583) | inactive: 0.235
15 | RNGTT C97 (UniProt O60942) | inactive: 0.0788

Two entries drawn at random from the list so far:
Row | Target | log2 ratio of iodoacetamide-alkyne labeling
6 | CIAO1 C234 (UniProt O76071) | inactive: 0.325
5 | KPNA6 C467 (UniProt O60684) | inactive: 0.346
